The results in this text go back to paper PMC7153906.

For the assay, the target named is T1, TMEM98-BirA* (mouse) (UniProt Q91X86).
T1 sequence: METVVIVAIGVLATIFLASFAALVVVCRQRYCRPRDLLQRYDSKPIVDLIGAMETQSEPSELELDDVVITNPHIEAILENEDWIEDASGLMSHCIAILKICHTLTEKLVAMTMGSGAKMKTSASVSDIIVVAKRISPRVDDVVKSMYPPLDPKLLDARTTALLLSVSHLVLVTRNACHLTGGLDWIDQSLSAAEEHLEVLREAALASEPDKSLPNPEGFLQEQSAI
Kind of assay: proximity labelling; BioID in stable ARPE-19 cells expressing TMEM98-BirA*, compared with BirA* alone; biotin in the medium for 24 hours; RIPA lysis; biotinylated proteins captured on streptavidin beads; mass spectrometry.

These are yes or no findings as the source states them, for the method shown. In cells and extracts the contact can be indirect. These calls come from enrichment with a bait or labelling near it, and not all partners need be listed.

B1: MYRF (endogenous in ARPE-19 cells) (protein, UniProt Q9Y2G1 1-1151)
chain: MEVVDETEALQRFFEGHDINGALEPSNIDTSILEEYISKEDASDLCFPDISAPASSASYSHGQPAMPGSSGVHHLSPPGGGPSPGRHGPLPPPGYGTPLNCNNNNGMGAAPKPFPGGTGPPIKAEPKAPYAPGTLPDSPPDSGSEAYSPQQVNEPHLLRTITPETLCHVGVPSRLEHPPPPPAHLPGPPPPPPPPPHYPVLQRDLYMKAEPPIPHYAAMGQGLVPTDLHHTQQSQMLHQLLQQHGAELPTHPSKKRKHSESPPSTLNAQMLNGMIKQEPGTVTALPLHPTRAPSPPWPPQGPLSPGPGSLPLSIARVQTPPWHPPGAPSPGLLQDSDSLSGSYLDPNYQSIKWQPHQQNKWATLYDANYKELPMLTYRVDADKGFNFSVGDDAFVCQKKNHFQVTVYIGMLGEPKYVKTPEGLKPLDCFYLKLHGVKLEALNQSINIEQSQSDRSKRPFNPVTVNLPPEQVTKVTVGRLHFSETTANNMRKKGKPNPDQRYFMLVVALQAHAQNQNYTLAAQISERIIVRASNPGQFESDSDVLWQRAQVPDTVFHHGRVGINTDRPDEALVVHGNVKVMGSLMHPSDLRAKEHVQEVDTTEQLKRISRMRLVHYRYKPEFAASAGIEATAPETGVIAQEVKEILPEAVKDTGDMVFANGKTIENFLVVNKERIFMENVGAVKELCKLTDNLETRIDELERWSHKLAKLRRLDSLKSTGSSGAFSHAGSQFSRAGSVPHKKRPPKVASKSSSVVPDQACISQRFLQGTIIALVVVMAFSVVSMSTLYVLSLRTEEDLVDTDGSFAVSTSCLLALLRPQPPGGSEALCPWSSQSFGTTQLRQSPLTTGLPGIQPSLLLVTTSLTSSAPGSAVRTLDMCSSHPCPVICCSSPTTNPTTGPSLGPSFNPGHVLSPSPSPSTNRSGPSQMALLPVTNIRAKSWGLSVNGIGHSKHHKSLEPLASPAVPFPGGQGKAKNSPSLGFHGRARRGALQSSVGPAEPTWAQGQSASLLAEPVPSLTSIQVLENSMSITSQYCAPGDACRPGNFTYHIPVSSGTPLHLSLTLQMNSSSPVSVVLCSLRSKEEPCEEGSLPQSLHTHQDTQGTSHRWPITILSFREFTYHFRVALLGQANCSSEALAQPATDYHFHFYRLCD
modifications: biotinylated by TMEM98-BirA* (sites not given)
As for B1, the binding entry is given as “binds”.
